Results of single-concentration screens

Chains of the proteins cited; added tags and fusions are not shown. Residues count along the entry.
UniProt Q4DA54, 1-478: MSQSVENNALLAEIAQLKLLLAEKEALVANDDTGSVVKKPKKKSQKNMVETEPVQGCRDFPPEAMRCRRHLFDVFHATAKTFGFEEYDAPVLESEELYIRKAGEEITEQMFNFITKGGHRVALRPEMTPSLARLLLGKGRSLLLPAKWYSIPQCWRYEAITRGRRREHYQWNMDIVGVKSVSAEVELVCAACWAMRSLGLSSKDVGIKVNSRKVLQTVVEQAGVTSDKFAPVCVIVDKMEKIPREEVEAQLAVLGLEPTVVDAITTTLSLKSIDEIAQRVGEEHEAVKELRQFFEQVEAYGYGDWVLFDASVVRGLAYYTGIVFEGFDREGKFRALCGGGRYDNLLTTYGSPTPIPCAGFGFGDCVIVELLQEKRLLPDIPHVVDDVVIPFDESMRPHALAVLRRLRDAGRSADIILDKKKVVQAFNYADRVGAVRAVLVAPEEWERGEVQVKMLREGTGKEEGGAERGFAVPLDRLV
UniProt I6X8D2, whole entry: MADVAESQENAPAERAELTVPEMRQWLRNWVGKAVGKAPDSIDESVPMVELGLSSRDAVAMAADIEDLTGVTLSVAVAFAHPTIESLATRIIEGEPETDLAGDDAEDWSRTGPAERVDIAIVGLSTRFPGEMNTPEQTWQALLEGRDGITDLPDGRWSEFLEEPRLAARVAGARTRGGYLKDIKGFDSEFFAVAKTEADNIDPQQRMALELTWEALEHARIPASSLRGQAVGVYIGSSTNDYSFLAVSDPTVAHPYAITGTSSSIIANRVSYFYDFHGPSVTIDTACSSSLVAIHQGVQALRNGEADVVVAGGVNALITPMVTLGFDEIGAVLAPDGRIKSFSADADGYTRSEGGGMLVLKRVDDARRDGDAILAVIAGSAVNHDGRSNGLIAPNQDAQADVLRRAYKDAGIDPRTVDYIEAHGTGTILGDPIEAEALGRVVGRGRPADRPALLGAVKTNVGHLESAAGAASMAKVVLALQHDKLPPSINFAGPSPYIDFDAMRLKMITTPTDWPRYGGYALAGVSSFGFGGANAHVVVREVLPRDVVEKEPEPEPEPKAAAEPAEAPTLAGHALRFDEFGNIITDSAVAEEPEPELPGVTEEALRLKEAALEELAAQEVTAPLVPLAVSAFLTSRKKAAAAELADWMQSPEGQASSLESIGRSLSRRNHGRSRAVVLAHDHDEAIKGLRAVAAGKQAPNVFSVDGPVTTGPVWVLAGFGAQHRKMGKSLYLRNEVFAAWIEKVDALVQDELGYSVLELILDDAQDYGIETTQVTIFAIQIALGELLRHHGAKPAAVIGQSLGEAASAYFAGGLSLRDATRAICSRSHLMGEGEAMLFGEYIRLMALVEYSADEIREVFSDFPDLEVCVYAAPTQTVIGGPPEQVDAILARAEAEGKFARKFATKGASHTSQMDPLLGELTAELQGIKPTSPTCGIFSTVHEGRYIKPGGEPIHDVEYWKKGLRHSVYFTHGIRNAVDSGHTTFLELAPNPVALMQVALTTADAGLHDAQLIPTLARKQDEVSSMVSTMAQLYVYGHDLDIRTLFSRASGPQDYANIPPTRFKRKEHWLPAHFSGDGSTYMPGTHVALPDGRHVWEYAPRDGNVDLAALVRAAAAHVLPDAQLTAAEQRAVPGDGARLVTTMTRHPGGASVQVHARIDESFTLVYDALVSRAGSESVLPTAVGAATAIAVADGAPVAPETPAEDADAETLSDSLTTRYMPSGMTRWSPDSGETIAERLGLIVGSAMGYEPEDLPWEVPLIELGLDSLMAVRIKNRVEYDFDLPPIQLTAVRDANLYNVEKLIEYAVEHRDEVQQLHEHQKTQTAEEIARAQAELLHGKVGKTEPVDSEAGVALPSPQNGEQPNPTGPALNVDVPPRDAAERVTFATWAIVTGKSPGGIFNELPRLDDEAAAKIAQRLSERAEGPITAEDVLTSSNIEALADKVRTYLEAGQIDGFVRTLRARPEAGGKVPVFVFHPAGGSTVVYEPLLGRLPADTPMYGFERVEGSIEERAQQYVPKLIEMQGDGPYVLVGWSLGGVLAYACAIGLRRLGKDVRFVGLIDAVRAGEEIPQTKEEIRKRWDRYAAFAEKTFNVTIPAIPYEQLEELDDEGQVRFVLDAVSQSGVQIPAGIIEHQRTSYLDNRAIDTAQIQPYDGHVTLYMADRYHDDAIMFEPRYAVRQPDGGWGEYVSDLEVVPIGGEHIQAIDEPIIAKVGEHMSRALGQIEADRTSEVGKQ
UniProt P9WNZ1, whole entry: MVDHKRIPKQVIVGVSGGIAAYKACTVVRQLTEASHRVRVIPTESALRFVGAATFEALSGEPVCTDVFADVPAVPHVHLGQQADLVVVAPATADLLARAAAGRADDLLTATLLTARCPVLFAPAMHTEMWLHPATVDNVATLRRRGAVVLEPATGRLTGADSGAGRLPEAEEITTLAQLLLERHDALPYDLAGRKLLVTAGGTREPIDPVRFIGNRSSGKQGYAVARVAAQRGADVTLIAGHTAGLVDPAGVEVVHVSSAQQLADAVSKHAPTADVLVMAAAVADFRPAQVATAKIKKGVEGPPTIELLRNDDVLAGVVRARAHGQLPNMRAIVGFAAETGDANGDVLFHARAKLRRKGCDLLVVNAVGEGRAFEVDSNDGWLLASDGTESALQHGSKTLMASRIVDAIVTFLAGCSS
UniProt Q8IDJ8, 1-583: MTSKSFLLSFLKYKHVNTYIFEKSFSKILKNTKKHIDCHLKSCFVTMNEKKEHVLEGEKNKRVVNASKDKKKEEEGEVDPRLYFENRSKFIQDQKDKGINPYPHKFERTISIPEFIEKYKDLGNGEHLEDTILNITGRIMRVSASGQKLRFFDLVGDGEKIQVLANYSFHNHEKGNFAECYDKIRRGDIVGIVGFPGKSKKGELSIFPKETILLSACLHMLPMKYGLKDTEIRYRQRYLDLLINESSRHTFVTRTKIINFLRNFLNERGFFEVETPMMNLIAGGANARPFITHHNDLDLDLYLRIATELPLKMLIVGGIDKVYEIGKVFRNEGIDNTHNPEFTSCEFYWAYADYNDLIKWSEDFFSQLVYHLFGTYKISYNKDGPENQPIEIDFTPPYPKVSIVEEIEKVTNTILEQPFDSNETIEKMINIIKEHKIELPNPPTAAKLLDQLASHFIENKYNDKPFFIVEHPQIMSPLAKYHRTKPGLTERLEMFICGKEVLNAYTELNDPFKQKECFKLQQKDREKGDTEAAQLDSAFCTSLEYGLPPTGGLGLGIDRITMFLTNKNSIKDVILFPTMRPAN
UniProt P9WFT3, whole entry: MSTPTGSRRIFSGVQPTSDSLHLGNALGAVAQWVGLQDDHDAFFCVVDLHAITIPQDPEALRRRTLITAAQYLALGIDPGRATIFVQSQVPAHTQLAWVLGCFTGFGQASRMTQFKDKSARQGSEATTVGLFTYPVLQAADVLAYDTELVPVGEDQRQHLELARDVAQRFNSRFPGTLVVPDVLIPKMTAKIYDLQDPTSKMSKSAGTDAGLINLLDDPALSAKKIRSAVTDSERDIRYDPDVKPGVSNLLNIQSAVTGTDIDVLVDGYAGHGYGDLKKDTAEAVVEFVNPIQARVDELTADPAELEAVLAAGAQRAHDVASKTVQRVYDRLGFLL

A: 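Enzyme assay of histidyl-tRNA synthetase; the read-out is not stated. Target: Histidine-tRNA ligase, Trypanosoma cruzi CL Brener (UniProt Q4DA54). Concentration: 30 µM. The record gives no direction; compounds that gave an IC50 in retests scored well above the rest, so higher reads as stronger inhibition. Size under these conditions: about 69,000 compounds, about 31 of them at 50% or above in at least one test.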
B: 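Polyketide synthase Pks13, Mycobacterium tuberculosis (UniProt I6X8D2). Enzyme assay of the thioesterase domain of polyketide synthase 13; the read-out is not stated. Tested at 30 µM. Higher reads as stronger inhibition (inferred from which compounds were picked for retests). Of about 67,000 compounds tested this way, about 300 (0.46%) reached 50% or more in at least one test.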
C: 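Coenzyme A biosynthesis protein CoaBC, Mycobacterium tuberculosis (UniProt P9WNZ1). Enzyme assay of CoaBC with a phosphate dye (Biomol Green) read at 650 nm. Concentration: 30 µM. Direction is inferred from only a few compounds that gave an IC50; most scored high, so higher reads as stronger inhibition. Most strong results did not repeat in a second test. Size under these conditions: about 67,000 compounds, about 40 of them at 50% or above in at least one test.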
D: 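Cell assay of Leishmania donovani living inside macrophages; the read-out is not stated. Compounds at 30 µM. The record gives no direction; compounds that gave an IC50 in retests scored well above the rest, so higher reads as stronger inhibition. About 69,000 compounds were tested under these conditions; 1.5% (about 1,000) showed 50% or more at least once.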
E: 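Enzyme assay of the cytosolic lysyl-tRNA synthetase in 384-well plates, read by luminescence. Target: Lysine-tRNA ligase, Plasmodium falciparum 3D7 (UniProt Q8IDJ8). Concentration: 30 µM. Higher reads as stronger inhibition, judged from the few compounds that gave an IC50. About 69,000 compounds were tested under these conditions; 0.071% (about 49) showed 50% or more at least once.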
F: 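Enzyme assay of tryptophanyl-tRNA synthetase; the read-out is not stated. Target: Tryptophan-tRNA ligase, Mycobacterium tuberculosis (UniProt P9WFT3). Tested at 10 µM. Direction is not recorded; retested compounds ran higher, which suggests that high means inhibition. Of about 65,000 compounds tested this way, about 64 (0.098%) reached 50% or more in at least one test.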

Values are the deposited “Percent Effect”, in %.
The record does not define 0% and 100%; most values in the screen are far below 50% and negative numbers occur (in some assays of this library far below -100).
The compounds are a random part of those screened.
Two or more numbers in one place are separate tests of the same structure; such repeats can differ widely.
A dash means the value is not listed here; it may have been measured.

compound,A,B,C,D,E,F
OC(CNc1ncnc2c1CCNCC2)C(F)(F)F (stereo not drawn),2.762,-25.81,7.78,26.97,-2.197,1.638
O=c1c2cccc(F)c2ncn1CCN1CCOCC1,9.392,-23.06,-16.02,20.23,1.398,2.129
CCc1cc(O)n2nc(C3CCN(C(=O)c4cccnc4)CC3)cc2n1,0.7576,-1.195,1.233,-1.648,2.038,1.187
CN(Cc1ccc(N2CCOCC2)cc1)Cc1noc(C(C)(C)C)n1,0.4484,21.84,2.284,19.47,3.135,-3.422
O=C(O)C(F)(F)F.O=S(=O)(NCC1COCc2c(-c3ccncc3)nnn2C1)C1CC1 (stereo not drawn),-,-,-,15.69,-,-
COc1c(C(=O)N2CCNC(=O)C2)cnc2c1c(C)nn2C,-1.136,-27.9,-0.7282,3.34,2.267,-
CC(C)c1noc(C(C)N2CCN(Cc3nnc(C4CC4)o3)CC2)n1 (stereo not drawn),2.825,-15.13,3.394,14.37,0.08719,-4.35
O=C(c1cccnc1)N1CCC2(CC1)COC(COc1ccccn1)C2 (stereo not drawn),12.4,0.7797,1.261,-,5.749,1.395
CCN(Cc1ccc(F)cc1Cl)C1CCS(=O)(=O)C1 (stereo not drawn),7.317,-2.764,2.025,1.625 and 9.047,5.487,-0.4772
CN(Cc1nc(C(C)(C)C)no1)C1CCS(=O)(=O)C1 (stereo not drawn),1.235,0.4875,1.595,34.08,3.026,1.234
Cc1cc(Cc2ccc(S(=O)(=O)N3CCOCC3)cc2)c(=O)[nH]n1,2.424,-9.379,-2.299,37.89,0.9943,1.236
O=C1CCC2(CCN(Cc3ccc(F)cc3)CC2)N1CCN1CCCC1,3.365,-8.581,2.118,-,1.69,-5.141
O=C(CCc1cccc(Cl)c1)NS(=O)(=O)Cc1ccon1,6.145,12.52,4.032,0.9952,2.447,-4.678
COc1ccc2c(c1)CCN2Cc1nc2c(cnn2C)c(=O)[nH]1,7.602,-6.465,4.082,36.81,-0.8831,-6.907
CCN(C(=O)COc1nc(C(C)(C)C)no1)C1CC1,-3.867,-15.33,2.679,0.2234,-2.977,-8.566
O=C(O)C(F)(F)F.[H][C@@]12COC[C@]1([H])[C@@H](OCC(=O)N(C)C)CN2Cc1c(C)noc1C,-,-,-,-5.718,-,-
COCc1nc2cc(NCc3sc(C)nc3C)ccc2o1,13.79,1.649,11.51,23.19,58.58,-9.022
CCN(Cc1ccoc1)C(C(N)=O)c1ccc(Br)cc1 (stereo not drawn),8.642,6.577,-1.966,16.1,3.136,1.923
CCOCC(O)CN1CCN(C(=O)c2ccc(N(C)C)nn2)CC1 (stereo not drawn),2.305,-14.11,5.682,-34.46,0.3937,14.54
O=C(O)C(F)(F)F.[H][C@@]12CN(C)CCO[C@]1([H])CN(C(=O)COc1ccccc1OC)C2,-,-,-,1.362,-,-
O=C1[C@@H]2CCN(Cc3ccoc3)C[C@@H]2OCCN1c1cccnc1,-2.956,-7.123,-3.553,-,-1.416,-7.984
COC1CCN(C(=O)CC(C)(C)C)CC(=O)N(C)c2ccccc21 (stereo not drawn),5.618,5.106,-0.4843,-6.661,4.388,-
O=C(CCn1ccnc1)N1C[C@@H](O)[C@H](Oc2cccc(F)c2)C1,1.493,-17.87,1.703,2.722 and 6.541,0.08449,-0.05798
CCc1noc(CCCC(=O)N2CCCC(c3ccn[nH]3)C2)n1 (stereo not drawn),0.5128,-,0.9938,26.12,-0.7197,0.8258
CC(C)OC(=O)N1CCC(Cc2cccc(C(N)=O)c2)C1 (stereo not drawn),-5.528,-50.85,5.428,-46.62,-6.189,-1.377
Cc1cc(C)c(C(=O)N(C)CCN(C)C(=O)OC(C)(C)C)[nH]1,0.5525,-25,-3.439,-4.081,3.981,-8.282
Cc1ccc(O)c(C(=O)N2CCC3(CCCNC3)C2)c1 (stereo not drawn),0.8696,-107.2,8.285,34.58,11.58,2.637
COc1cccc(NC(=O)N2CCC(O)(C(F)(F)F)C2)c1 (stereo not drawn),4.433,-48.5,3.165,28.26,10.03,2.103
Cc1cncc(C2CCN(C(=O)CCc3ccnn3C)CC2)n1,1.493,-13.78,-1.46,3.408 and -5.039,-0.1459,11.19
CN(C)Cc1ccc(C2CCCCN2C(=O)c2cc(=O)[nH]c(=O)[nH]2)cc1 (stereo not drawn),3.061,-2.017,10.32,-3.88,6.565,0.729
COc1ccccc1OCc1cc(C(=O)N2CC(O)C2)n[nH]1,4.065,-12.15,3.797,-5.045,4.819,-1.706
Fc1ccc(C2CCCN2Cc2nnnn2C2CC2)cc1 (stereo not drawn),2.232,6.96,-1.02,-9.442,6.684,-1.91

The last 4 entries again:

compound	A	B	C	D	E	F
Cc1cncc(C2CCN(C(=O)CCc3ccnn3C)CC2)n1	1.493	-13.78	-1.46	3.408 and -5.039	-0.1459	11.19
CN(C)Cc1ccc(C2CCCCN2C(=O)c2cc(=O)[nH]c(=O)[nH]2)cc1 (stereo not drawn)	3.061	-2.017	10.32	-3.88	6.565	0.729
COc1ccccc1OCc1cc(C(=O)N2CC(O)C2)n[nH]1	4.065	-12.15	3.797	-5.045	4.819	-1.706
Fc1ccc(C2CCCN2Cc2nnnn2C2CC2)cc1 (stereo not drawn)	2.232	6.96	-1.02	-9.442	6.684	-1.91

Data taken from ChEMBL document CHEMBL3988442, “University of Dundee, Small-Polar-MMV Screening Library” (2021).